In the test the target is Full-length ACVRL1-Flag (Activin A receptor-like type 1) (UniProt P37023). Description: affinity purification with mass spectrometry; HCT116 cells transfected with ACVRL1-Flag or vector-Flag (pENTER); IP with anti-DYKDDDDK magnetic agarose, five washes with PBS, SDS-PAGE, LC-MS.

Amino acid sequences for entries named in this document (tags omitted). Residues count along the entry.
UniProt P37023, residues 22-503: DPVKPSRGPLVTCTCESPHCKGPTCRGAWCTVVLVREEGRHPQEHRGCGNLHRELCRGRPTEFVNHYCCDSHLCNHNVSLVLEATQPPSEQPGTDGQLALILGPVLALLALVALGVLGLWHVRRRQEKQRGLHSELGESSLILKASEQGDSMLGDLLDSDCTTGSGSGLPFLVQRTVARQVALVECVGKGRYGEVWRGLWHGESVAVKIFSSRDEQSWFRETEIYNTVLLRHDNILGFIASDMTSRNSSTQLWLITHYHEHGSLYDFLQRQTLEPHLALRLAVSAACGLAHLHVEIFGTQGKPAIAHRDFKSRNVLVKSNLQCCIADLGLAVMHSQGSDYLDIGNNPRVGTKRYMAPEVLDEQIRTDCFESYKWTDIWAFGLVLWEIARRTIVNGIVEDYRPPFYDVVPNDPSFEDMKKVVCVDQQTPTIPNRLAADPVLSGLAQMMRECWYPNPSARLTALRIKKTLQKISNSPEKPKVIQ

These are yes or no findings as the source states them, for the method shown. In cells and extracts the contact can be indirect. A yes stands for co-enrichment or nearness to the bait. Other partners may have been found.

B1: Glutathione peroxidase 2 (GPX2), endogenous (enzyme, UniProt P18283 1-190)
chain: MAFIAKSFYDLSAISLDGEKVDFNTFRGRAVLIENVASLUGTTTRDFTQLNELQCRFPRRLVVLGFPCNQFGHQENCQNEEILNSLKYVRPGGGYQPTFTLVQKCEVNGQNEHPVFAYLKDKLPYPYDDPFSLMTDPKLIIWSPVRRSDVAWNFEKFLIGPEGEPFRRYSRTFPTINIEPDIKRLLKVAI
As for B1, the binding entry is recorded as “binds”.
